Assay results as given in paper PMC8222926.
No constants are given. Whether binding was seen depends on the method and setting. Binding seen in cells or lysates may run through a third protein. A result given as binding can be weak or reduced; the word gives no strength.

Target: T1, endogenous Fe65 (human (endogenous in A549; legend: HEK293T)) (UniProt O00213)
T1 sequence: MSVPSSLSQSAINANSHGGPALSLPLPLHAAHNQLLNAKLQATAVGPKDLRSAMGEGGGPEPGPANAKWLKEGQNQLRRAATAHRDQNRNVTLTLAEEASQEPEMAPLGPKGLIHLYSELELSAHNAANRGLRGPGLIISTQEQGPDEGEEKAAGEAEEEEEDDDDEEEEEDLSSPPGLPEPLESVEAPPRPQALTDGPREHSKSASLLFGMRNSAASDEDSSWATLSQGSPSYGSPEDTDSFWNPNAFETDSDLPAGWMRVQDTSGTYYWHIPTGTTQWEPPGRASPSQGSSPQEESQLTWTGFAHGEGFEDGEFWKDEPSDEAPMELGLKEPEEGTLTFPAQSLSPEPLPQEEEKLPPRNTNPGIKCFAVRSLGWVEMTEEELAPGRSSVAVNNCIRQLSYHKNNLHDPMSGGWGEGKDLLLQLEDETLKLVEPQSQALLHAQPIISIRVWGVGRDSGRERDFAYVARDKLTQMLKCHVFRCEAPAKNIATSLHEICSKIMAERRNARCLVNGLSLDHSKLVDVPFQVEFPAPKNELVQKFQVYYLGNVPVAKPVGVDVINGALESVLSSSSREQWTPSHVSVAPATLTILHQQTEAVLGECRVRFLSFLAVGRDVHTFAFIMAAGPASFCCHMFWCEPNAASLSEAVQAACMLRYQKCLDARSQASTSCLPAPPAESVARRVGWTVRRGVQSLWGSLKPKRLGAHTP
Assay: co-IP; endogenous proteins; Fe65 antibody; lysate of A549 cells (text; the legend says HEK293T); 0.25% CHAPSO; protein G magnetic beads; immunoblot

- binding: binds
Substance: endogenous PP1 (enzyme)
